Assay results reported in paper doi:10.1101/2023.06.15.543498.
Where two headings read alike, the source gives them in different places. No constants are given. Whether binding was seen depends on the method and setting. Binding calls can cover weak binding; strength is not graded here.

The chains behind the UniProt entries cited, without tags or fusion partners. Where a name states a change or a piece, a line headed by the entry shows the natural chain unless it says otherwise.
UniProt P0A7L0: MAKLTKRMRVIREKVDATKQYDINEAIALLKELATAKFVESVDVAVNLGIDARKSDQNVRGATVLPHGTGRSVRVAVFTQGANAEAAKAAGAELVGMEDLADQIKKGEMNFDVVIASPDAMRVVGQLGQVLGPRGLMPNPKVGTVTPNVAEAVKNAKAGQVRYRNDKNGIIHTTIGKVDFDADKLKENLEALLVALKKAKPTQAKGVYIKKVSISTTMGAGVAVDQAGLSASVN
UniProt P0A9U3: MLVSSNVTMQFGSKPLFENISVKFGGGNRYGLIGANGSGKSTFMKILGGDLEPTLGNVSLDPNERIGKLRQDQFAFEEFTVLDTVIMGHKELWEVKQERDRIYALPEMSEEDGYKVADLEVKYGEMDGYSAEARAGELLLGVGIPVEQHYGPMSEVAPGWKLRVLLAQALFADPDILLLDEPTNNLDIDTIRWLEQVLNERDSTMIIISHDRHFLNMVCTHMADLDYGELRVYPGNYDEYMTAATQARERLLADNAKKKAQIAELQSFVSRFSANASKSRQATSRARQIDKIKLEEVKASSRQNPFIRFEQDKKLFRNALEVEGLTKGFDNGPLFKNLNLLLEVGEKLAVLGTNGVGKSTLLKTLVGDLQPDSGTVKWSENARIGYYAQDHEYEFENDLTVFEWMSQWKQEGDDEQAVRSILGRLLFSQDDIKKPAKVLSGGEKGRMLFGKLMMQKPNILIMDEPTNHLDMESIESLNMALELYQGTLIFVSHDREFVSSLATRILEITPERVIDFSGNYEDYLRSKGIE

Experiments:
[1] = biological target: ribosomal protein uL1 (E. coli (endogenous in strain MRE600)) (UniProt P0A7L0); assay: cryo-EM structure
[2] = biological target: ribosomal protein uL1 (E. coli (endogenous in strain MRE600)) (UniProt P0A7L0); assay: cryo-EM structure; remark: listed apart in the source

binding [1]: binds
binding [2]: binds
Substance: EQ2-YbiT (hydrolysis-deficient EQ2 mutant of E. coli YbiT) (from UniProt P0A9U3) (enzyme)
